These are yes or no findings as the source states them, for the method shown. Binding seen in cells or lysates may run through a third protein. Some entries that bind do so weakly or less than the wild type. Sequences can lack the tags named with a protein.

In PMC6367803 one finds binding data, which are given here for one molecule.

The test concerns the target T1, Flag-SPAG5 (sperm-associated antigen 5) (UniProt Q96R06).
T1 sequence: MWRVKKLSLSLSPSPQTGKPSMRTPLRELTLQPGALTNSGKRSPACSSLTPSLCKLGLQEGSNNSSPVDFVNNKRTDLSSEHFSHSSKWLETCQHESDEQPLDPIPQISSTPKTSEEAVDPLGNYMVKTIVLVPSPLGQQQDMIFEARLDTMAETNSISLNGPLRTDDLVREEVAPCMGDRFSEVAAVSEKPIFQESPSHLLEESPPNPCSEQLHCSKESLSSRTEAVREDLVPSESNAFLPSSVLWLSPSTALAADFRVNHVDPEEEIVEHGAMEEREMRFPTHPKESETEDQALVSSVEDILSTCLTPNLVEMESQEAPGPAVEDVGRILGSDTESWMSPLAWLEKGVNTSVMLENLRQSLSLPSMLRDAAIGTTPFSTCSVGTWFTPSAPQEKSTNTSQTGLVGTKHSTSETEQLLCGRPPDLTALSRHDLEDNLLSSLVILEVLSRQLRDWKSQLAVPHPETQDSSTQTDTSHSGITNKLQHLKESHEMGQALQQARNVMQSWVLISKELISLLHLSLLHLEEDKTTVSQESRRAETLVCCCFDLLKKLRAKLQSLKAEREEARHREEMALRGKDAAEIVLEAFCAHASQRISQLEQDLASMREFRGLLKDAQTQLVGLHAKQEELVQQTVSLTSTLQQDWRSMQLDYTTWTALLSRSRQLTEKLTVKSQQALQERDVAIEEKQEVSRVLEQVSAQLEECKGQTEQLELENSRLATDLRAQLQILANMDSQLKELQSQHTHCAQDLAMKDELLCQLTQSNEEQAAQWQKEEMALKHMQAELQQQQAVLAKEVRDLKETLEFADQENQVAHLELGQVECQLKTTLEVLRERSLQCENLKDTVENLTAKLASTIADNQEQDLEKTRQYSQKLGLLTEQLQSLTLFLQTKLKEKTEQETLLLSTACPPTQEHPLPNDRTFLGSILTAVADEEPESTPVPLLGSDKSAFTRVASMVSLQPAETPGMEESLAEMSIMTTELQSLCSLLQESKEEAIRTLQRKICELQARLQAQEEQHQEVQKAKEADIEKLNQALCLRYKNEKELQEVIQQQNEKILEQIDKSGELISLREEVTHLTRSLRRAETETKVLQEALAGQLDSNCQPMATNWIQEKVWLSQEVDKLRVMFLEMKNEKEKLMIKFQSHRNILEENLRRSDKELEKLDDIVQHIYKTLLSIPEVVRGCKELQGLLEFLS
Put plainly: co-IP; lysates of MDA-MB-231 and BT549 cells with Flag-SPAG5 in NP-40 lysis buffer (50 mM Tris-HCl pH 8, 150 mM NaCl, 0.5% NP-40, 10% glycerol, 2 mM MgCl2, 1 mM EDTA); 3 ug Flag antibody overnight at 4 °C, protein G Sepharose beads; western blot.

B1: c-MYC binding protein (MYCBP) (protein, UniProt Q99417 1-103)
chain: MAHYKAADSKREQFRRYLEKSGVLDTLTKVLVALYEEPEKPNSALDFLKHHLGAATPENPEIELLRLELAEMKEKYEAIVEENKKLKAKLAQYEPPQEEKRAE
As for B1, the binding result was “binds”.
